Measurements published in the supplement of paper PMC10849652.
The other results are listed elsewhere or left out.

Protein sequences, listed by entry. Tags and fused reporters are not part of them. Lines headed by an entry give the natural chain unless they say otherwise; changes in a name come on top.
UniProt Q8N2A8: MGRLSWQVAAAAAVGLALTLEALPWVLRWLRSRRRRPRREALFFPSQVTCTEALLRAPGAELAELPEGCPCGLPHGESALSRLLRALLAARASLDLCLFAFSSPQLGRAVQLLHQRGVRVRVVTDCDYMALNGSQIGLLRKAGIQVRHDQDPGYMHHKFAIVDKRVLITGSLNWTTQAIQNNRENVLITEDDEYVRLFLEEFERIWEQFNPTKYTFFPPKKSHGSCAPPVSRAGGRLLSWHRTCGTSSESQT
UniProt Q9BSJ6: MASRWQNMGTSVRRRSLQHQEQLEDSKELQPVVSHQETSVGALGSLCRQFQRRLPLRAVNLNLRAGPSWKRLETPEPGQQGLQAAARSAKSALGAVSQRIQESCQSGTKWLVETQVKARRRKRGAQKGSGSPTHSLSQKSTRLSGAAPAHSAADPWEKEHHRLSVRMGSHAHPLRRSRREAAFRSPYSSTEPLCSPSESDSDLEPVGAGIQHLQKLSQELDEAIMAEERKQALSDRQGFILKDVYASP
PIGBOS1, A0A0B4J2F0, UniProt A0A0B4J2F0, whole entry, looked up: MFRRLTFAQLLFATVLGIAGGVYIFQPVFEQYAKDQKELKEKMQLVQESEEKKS
UniProt Q9UPP1: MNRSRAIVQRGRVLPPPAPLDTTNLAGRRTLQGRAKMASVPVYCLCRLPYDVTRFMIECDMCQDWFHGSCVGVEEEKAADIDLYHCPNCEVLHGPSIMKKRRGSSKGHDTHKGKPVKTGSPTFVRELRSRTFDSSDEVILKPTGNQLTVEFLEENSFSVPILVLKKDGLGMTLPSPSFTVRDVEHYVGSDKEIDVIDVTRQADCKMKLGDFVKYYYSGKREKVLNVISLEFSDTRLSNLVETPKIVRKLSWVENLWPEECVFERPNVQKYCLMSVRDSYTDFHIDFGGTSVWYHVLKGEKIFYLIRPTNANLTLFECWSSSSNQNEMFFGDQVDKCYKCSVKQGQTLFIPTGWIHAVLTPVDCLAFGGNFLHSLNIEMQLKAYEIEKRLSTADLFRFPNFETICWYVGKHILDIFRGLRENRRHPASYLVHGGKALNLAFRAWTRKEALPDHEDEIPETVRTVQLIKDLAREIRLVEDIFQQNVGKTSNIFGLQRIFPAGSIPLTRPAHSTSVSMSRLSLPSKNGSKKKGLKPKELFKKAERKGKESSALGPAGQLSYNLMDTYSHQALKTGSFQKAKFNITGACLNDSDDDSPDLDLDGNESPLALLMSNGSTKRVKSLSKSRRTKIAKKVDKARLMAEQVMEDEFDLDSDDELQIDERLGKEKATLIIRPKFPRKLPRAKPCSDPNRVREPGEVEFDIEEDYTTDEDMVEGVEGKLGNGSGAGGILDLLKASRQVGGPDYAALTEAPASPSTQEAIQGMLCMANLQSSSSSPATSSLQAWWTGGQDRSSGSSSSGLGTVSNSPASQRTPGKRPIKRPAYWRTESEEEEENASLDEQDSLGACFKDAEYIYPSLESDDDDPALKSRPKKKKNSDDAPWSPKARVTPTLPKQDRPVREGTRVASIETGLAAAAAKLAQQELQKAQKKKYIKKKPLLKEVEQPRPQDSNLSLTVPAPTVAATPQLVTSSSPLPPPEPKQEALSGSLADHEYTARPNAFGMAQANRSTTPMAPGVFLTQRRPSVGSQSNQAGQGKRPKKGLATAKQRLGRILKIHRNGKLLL
UniProt Q8IXK0: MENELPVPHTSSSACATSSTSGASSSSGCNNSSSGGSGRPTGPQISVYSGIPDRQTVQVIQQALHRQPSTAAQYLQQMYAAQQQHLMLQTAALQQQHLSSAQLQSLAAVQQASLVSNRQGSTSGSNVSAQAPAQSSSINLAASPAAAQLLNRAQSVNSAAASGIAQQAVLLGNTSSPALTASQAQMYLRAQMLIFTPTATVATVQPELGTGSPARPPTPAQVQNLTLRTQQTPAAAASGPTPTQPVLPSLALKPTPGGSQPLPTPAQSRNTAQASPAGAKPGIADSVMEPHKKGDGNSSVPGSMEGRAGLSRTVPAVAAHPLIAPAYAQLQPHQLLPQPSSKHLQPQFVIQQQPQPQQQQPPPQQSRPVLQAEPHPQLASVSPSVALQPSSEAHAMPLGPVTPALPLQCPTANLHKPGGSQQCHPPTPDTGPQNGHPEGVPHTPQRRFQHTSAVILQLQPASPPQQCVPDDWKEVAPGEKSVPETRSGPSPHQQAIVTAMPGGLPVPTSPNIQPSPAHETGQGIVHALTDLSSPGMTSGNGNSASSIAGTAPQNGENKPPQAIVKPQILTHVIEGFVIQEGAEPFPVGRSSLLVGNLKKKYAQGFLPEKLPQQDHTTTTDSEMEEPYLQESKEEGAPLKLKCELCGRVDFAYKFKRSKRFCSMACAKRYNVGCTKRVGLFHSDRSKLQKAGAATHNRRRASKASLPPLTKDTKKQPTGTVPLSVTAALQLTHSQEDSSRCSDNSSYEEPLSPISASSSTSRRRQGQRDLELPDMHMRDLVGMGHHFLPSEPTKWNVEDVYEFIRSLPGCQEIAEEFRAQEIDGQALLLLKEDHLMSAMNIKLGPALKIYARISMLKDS
UniProt Q8NDX5: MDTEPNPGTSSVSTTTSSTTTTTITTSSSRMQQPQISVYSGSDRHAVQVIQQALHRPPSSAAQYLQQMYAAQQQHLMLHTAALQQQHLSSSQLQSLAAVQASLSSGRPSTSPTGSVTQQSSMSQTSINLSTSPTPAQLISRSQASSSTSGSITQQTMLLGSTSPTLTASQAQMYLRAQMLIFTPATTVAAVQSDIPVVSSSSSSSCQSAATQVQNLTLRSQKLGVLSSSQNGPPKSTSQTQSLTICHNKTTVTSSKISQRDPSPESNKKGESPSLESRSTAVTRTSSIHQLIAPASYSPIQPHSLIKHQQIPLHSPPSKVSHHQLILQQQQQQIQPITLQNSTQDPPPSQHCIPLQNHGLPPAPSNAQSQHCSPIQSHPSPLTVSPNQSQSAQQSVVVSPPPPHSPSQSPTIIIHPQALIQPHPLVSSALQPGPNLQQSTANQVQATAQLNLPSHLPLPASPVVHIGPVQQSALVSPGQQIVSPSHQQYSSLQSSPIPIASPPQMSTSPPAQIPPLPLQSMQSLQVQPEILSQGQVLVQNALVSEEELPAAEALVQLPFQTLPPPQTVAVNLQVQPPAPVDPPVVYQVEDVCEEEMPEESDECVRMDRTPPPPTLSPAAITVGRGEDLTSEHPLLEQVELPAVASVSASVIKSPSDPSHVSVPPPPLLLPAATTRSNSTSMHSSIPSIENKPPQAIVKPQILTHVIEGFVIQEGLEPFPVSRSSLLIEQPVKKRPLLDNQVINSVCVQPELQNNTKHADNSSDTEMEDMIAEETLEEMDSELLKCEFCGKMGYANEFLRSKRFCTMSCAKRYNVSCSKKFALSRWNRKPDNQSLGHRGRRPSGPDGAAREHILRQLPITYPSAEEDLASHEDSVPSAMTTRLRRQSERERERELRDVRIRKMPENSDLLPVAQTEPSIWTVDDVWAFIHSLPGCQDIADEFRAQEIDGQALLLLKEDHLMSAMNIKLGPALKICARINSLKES
UniProt Q53GA4: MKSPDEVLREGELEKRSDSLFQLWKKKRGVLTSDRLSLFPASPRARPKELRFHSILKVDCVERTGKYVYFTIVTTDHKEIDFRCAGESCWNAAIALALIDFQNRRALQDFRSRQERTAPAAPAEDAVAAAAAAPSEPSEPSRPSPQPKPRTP
UniProt Q6ZUJ8: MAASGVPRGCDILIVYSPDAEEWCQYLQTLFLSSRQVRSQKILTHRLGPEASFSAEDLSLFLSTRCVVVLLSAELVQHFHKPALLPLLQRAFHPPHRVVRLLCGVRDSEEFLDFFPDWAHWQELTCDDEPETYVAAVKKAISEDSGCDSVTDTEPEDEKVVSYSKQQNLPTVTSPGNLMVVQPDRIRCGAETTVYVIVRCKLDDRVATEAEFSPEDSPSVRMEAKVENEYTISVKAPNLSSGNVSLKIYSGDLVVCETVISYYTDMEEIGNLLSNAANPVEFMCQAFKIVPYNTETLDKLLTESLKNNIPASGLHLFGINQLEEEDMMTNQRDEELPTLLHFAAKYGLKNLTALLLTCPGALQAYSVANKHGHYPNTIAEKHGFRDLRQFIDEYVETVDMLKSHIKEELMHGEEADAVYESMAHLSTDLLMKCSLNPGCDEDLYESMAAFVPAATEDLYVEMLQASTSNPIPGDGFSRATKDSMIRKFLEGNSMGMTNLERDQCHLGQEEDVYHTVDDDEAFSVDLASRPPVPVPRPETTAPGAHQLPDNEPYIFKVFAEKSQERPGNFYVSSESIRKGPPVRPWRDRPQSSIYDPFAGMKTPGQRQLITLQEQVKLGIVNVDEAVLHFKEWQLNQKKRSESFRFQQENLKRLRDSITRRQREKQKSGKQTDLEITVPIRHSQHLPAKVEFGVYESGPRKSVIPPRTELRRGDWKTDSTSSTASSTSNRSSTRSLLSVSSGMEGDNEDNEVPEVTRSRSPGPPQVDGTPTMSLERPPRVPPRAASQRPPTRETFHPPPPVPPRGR
UniProt Q9BRB3: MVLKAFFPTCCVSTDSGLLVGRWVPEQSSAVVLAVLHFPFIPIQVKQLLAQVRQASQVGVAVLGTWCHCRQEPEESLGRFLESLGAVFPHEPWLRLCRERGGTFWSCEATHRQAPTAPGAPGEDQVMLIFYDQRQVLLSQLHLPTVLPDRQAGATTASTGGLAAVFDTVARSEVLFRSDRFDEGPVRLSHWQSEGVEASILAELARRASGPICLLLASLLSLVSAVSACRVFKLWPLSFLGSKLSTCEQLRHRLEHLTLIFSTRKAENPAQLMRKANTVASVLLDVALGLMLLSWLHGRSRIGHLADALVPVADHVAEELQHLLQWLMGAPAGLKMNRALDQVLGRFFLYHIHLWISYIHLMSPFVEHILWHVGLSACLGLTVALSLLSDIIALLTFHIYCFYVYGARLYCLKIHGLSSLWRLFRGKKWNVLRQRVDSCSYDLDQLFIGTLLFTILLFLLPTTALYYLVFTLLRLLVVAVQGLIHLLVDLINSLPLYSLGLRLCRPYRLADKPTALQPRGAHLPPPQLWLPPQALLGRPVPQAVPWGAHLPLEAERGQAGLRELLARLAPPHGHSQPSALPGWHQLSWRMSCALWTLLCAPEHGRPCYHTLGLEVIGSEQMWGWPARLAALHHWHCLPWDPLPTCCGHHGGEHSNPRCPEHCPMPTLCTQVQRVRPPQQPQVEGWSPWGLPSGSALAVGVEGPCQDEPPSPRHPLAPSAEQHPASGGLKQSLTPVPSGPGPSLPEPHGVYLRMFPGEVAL
UniProt Q03405, whole entry, looked up: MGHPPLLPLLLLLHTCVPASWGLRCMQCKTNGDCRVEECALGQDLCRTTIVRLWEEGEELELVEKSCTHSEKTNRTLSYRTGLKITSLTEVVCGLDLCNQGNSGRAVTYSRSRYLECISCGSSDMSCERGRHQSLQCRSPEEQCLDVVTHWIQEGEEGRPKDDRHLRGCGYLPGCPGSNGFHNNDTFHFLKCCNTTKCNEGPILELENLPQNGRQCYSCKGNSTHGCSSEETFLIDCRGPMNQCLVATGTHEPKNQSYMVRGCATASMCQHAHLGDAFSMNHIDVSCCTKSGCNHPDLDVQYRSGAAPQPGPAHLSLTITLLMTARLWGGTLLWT
UniProt O75928, whole entry, looked up: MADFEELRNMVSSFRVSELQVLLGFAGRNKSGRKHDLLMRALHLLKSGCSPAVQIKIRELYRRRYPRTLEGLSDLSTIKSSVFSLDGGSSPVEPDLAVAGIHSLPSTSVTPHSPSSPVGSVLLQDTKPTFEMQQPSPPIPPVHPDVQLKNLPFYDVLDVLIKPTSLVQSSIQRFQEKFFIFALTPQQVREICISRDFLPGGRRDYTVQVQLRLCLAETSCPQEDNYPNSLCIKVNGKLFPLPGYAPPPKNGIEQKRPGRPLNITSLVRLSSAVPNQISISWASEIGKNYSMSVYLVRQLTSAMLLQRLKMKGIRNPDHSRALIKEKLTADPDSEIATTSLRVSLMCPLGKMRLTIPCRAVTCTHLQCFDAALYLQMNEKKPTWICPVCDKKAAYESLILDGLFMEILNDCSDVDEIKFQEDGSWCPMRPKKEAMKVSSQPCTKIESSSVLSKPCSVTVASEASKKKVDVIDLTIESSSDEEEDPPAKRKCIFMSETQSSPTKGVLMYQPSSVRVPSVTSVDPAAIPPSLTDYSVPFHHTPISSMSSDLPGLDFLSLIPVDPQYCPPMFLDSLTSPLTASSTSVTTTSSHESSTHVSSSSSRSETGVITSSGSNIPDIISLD
UniProt Q9HB19: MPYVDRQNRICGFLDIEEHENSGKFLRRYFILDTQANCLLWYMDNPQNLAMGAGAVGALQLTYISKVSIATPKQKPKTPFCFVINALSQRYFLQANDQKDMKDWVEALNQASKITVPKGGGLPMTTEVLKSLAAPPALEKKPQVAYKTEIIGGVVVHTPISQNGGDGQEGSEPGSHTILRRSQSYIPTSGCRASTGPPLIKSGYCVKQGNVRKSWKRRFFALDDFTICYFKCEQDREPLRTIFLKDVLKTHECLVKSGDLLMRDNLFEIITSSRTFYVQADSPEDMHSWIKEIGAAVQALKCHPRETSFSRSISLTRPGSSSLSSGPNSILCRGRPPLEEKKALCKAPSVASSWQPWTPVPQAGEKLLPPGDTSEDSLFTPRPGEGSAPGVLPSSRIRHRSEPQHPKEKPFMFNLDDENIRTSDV

Key:
Assay in all cases: log2 fold change, soluble protein after heating vs DMSO (PISA); higher = thermal stabilisation; K562 lysate, 10 uM; active = over 0.2 and 3.5 SD of the protein, either way, in both replicates (recomputed)
[1] = compound: CC1=C2C(=CC=C1)N=C(N(C2=O)C3=CC=CC=C3C)CN4C=NC5=C(N=CN=C54)N
Procedure, shortened: (§1)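 Thermal stability, expressed as log-two fold change relative to solvent controls, is given from duplicates. Crude K562 extract in PBS pH 7.4 with 1 mM MgCl2, at 1 mg/mL protein, was treated with 10 μM compound for 30 min and heated in aliquots for 3 min across 48°C-58°C. After pooling, adjustment to 0.5% NP-40 at 4°C and centrifugation at 21,000xg for 90 min, supernatant protein was measured by TMTpro 16plex LC-MS/MS with channel sums equalised.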

[2] = compound: Cc1sc2c(c1C)C(c1ccc(Cl)cc1)=N[C@@H](CC(=O)OC(C)(C)C)c1nnc(C)n1-2
Procedure, shortened: as §1

[3] = compound: c1ccc([C@@H]2C[C@H]2NC2CCNCC2)cc1
Procedure, shortened: as §1

[4] = compound: C1=CC=C(C=C1)[C@H](COC2=CC3=C(C=C2)NC(=O)N3)NC(=O)C4=CC=CN(C4=O)CC5=CC(=C(C=C5)F)F
Procedure, shortened: as §1

[5] = compound: CC1=C(SC2=C1C(=N[C@H](C3=NN=C(N32)C)CC(=O)N)C4=CC=C(C=C4)Cl)C
Procedure, shortened: as §1

PIGN (UniProt O95427)
log2 fold change [1]: inactive: 0.057
log2 fold change [2]: inactive: 0.046

PHKG1 isoform 2 (UniProt Q16816)
log2 fold change [1]: inactive: -0.375
log2 fold change [2]: inactive: -0.054
log2 fold change [3]: inactive: -0.493

PLD6 (UniProt Q8N2A8)
log2 fold change [2]: inactive: -0.213

PHACTR2 isoform 4 (UniProt O75167)
log2 fold change [4]: inactive: 0.025
log2 fold change [5]: inactive: 0.035
log2 fold change [2]: inactive: 0.036
log2 fold change [3]: inactive: -0.083

PIAS1 isoform 2 (UniProt O75925)
log2 fold change [2]: inactive: -0.056
log2 fold change [3]: inactive: 0.047

PIM2 (UniProt Q9P1W9)
log2 fold change [2]: inactive: -0.089
log2 fold change [3]: inactive: -0.092

PKIB isoform 2 (UniProt Q9C010)
log2 fold change [3]: inactive: -0.072

PIMREG (UniProt Q9BSJ6)
log2 fold change [4]: inactive: 0.204
log2 fold change [5]: inactive: -0.145
log2 fold change [3]: inactive: -0.112

PKMYT1 (UniProt Q99640)
log2 fold change [1]: inactive: 0.028
log2 fold change [2]: inactive: -0.037
log2 fold change [3]: inactive: 0.025

PKLR (UniProt F8W6W2)
log2 fold change [1]: inactive: -0.08

PLCG2 (UniProt P16885)
log2 fold change [4]: inactive: -0.024
log2 fold change [5]: inactive: 0.056
log2 fold change [1]: inactive: 0.038
log2 fold change [3]: inactive: 0.234

PIGBOS1, A0A0B4J2F0
log2 fold change [3]: inactive: 0.148

PHF8 (UniProt Q9UPP1)
log2 fold change [1]: inactive: 0.044
log2 fold change [3]: inactive: -0.347

PHC2 isoform 5 (UniProt Q8IXK0)
log2 fold change [1]: inactive: 0.185
log2 fold change [3]: inactive: 0.012

PKP4 (UniProt Q99569)
log2 fold change [2]: inactive: 0.075
log2 fold change [3]: inactive: -0.01

PHC3 isoform 7 (UniProt Q8NDX5)
log2 fold change [1]: inactive: -0.071
log2 fold change [2]: inactive: 0.039
log2 fold change [3]: inactive: -0.021

PIK3C2A (UniProt O00443)
log2 fold change [4]: inactive: 0.018
log2 fold change [5]: inactive: -0.031
log2 fold change [2]: inactive: 0.003

PHLDA2 (UniProt Q53GA4)
log2 fold change [1]: inactive: 0.333
log2 fold change [2]: inactive: 0.013

PIK3AP1 (UniProt Q6ZUJ8)
log2 fold change [4]: inactive: -0.086
log2 fold change [5]: inactive: 0.069
log2 fold change [2]: inactive: 0.173

PHGDH, A0A286YFE1
log2 fold change [4]: inactive: 0.061
log2 fold change [5]: inactive: -0.111
log2 fold change [2]: inactive: -0.095

PIP5K1A (UniProt Q99755)
log2 fold change [4]: inactive: -0.058
log2 fold change [5]: inactive: 0.067
log2 fold change [2]: inactive: 0.059
log2 fold change [3]: inactive: -0.096

PIGQ (UniProt Q9BRB3)
log2 fold change [4]: inactive: -0.013
log2 fold change [5]: inactive: -0.207
log2 fold change [1]: inactive: 0.026
log2 fold change [3]: inactive: -0.132

PLAUR (UniProt Q03405)
log2 fold change [2]: inactive: -0.117
log2 fold change [3]: inactive: 0.032

PLEKHA3 (UniProt Q9HB20)
log2 fold change [2]: inactive: 0.022
log2 fold change [3]: inactive: -0.305

PIAS4 (UniProt Q8N2W9)
log2 fold change [1]: inactive: 0.058
log2 fold change [2]: inactive: -0.025
log2 fold change [3]: inactive: -0.103

PIAS2 (UniProt O75928)
log2 fold change [1]: inactive: 0.001
log2 fold change [2]: inactive: 0.046

PLEKHA2 (UniProt Q9HB19)
log2 fold change [4]: inactive: -0.036
log2 fold change [5]: inactive: 0.109
log2 fold change [2]: inactive: 0.178
log2 fold change [3]: inactive: -0.035

PIGX isoform 2 (UniProt Q8TBF5)
log2 fold change [4]: inactive: 0.011
log2 fold change [5]: inactive: 0.022
log2 fold change [2]: inactive: -0.123
log2 fold change [3]: inactive: 0.011

PHETA1 isoform 4 (UniProt Q8N4B1)
log2 fold change [3]: inactive: -0.012

PIP5K1C isoform 3 (UniProt O60331)
log2 fold change [4]: inactive: -0.031
log2 fold change [5]: inactive: 0.07
log2 fold change [2]: inactive: 0.045

PIGW (UniProt Q7Z7B1)
log2 fold change [1]: inactive: 0.144
log2 fold change [2]: inactive: -0.021
